Assay results taken from paper PMC11900227.
Results are given in words; binding and its absence hold for the method and conditions named. For some assays here: In cells and extracts the contact can be indirect. Some binding calls cover weakened binding; strength is not graded here. Tags and fused reporters may be left off the sequences shown. One block for each molecule: values may come before it.

Sequences of proteins named here, by UniProt entry; tags and fusion partners are left off.
UniProt Q39026: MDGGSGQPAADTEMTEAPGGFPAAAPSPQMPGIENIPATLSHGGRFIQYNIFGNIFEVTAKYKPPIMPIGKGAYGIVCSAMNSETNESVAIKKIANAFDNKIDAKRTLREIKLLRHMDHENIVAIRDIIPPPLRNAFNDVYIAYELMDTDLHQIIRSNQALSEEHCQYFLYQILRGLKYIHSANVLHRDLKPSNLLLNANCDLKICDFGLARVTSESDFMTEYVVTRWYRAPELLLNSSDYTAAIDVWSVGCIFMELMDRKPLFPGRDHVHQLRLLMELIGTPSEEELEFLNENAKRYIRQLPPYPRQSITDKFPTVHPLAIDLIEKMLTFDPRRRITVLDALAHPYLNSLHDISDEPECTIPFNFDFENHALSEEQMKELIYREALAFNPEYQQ

Key:
[1] = target: T1, TIR1-Myc (Arabidopsis thaliana) (UniProt Q570C0); assay: co-IP; Arabidopsis mesophyll protoplasts co-transfected; anti-Myc antibody immunoprecipitates IAA16-Myc or TIR1-Myc, anti-GFP antibody detects MPK3-GFP or MPK6-GFP
T1 sequence: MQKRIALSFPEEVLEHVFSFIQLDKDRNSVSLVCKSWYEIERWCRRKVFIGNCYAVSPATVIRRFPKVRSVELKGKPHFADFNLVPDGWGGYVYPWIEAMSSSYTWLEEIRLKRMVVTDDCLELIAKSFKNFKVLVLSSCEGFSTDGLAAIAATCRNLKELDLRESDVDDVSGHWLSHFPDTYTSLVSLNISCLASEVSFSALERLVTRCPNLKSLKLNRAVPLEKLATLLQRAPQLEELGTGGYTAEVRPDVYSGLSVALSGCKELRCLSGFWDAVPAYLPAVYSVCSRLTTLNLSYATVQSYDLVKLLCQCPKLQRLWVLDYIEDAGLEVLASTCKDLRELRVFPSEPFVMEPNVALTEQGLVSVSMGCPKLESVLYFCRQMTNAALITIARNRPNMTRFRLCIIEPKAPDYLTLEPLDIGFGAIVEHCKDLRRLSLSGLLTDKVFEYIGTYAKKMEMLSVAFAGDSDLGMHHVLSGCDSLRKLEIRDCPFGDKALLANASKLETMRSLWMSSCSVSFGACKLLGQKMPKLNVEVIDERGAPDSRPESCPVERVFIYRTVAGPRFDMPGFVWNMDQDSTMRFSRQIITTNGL

[2] = target: T2, IAA16-Myc (Arabidopsis thaliana) (UniProt O24407); assay: as above
T2 sequence: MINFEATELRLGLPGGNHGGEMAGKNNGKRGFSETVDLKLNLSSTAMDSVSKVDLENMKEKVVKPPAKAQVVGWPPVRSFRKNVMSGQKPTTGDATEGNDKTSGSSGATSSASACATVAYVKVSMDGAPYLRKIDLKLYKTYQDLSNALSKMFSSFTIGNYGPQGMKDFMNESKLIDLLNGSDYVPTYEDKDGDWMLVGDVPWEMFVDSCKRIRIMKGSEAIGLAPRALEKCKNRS

[3] = target: T3, TIR1-YFP^C (Arabidopsis thaliana) (UniProt Q570C0); assay: split reporter; BiFC in Arabidopsis mesophyll protoplasts; MPK3/6-YFP^N with TIR1- or IAAs-YFP^C, 25 °C for 12 h in the dark, confocal microscopy
T3 sequence: T1 sequence

[4] = target: T4, transport inhibitor response 1 (TIR1), yeast two-hybrid fusion (Arabidopsis thaliana) (UniProt Q570C0); assay: two-hybrid; Matchmaker Gold (GAL4 based), pGBKT7 and pGADT7 in yeast strain AH109; growth on SD medium without Leu, Trp, His and Ade for 2 to 3 days, 30 °C
T4 sequence: T1 sequence

[5] = target: T5, IAA16, yeast two-hybrid fusion (Arabidopsis thaliana) (UniProt O24407); assay: as above
T5 sequence: T2 sequence

[6] = target: T6, IAA32, yeast two-hybrid fusion (Arabidopsis thaliana) (UniProt Q8RYC6); assay: as above
T6 sequence: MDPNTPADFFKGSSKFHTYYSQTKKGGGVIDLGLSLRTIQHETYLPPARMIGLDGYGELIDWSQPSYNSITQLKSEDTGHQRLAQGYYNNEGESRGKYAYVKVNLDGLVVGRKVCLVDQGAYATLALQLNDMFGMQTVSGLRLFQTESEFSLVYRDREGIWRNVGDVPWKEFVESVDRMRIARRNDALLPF

[7] = target: T7, IAA34, yeast two-hybrid fusion (Arabidopsis thaliana) (UniProt Q9C5X0); assay: as above
T7 sequence: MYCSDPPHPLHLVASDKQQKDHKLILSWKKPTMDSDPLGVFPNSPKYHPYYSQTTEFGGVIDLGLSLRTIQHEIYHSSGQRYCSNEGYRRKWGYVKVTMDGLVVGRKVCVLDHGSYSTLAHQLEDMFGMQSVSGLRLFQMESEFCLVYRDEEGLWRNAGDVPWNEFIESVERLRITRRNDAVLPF

Molecule: MPK6-YFP^N (from UniProt Q39026 1-395) (enzyme)
binding [3]: binds

B1: mitogen-activated protein kinase 3 (MPK3), yeast two-hybrid fusion (enzyme, UniProt Q39023 1-370)
chain: MNTGGGQYTDFPAVETHGGQFISYDIFGSLFEITSKYRPPIIPIGRGAYGIVCSVLDTETNELVAMKKIANAFDNHMDAKRTLREIKLLRHLDHENIIAIRDVVPPPLRRQFSDVYISTELMDTDLHQIIRSNQSLSEEHCQYFLYQLLRGLKYIHSANIIHRDLKPSNLLLNANCDLKICDFGLARPTSENDFMTEYVVTRWYRAPELLLNSSDYTAAIDVWSVGCIFMELMNRKPLFPGKDHVHQMRLLTELLGTPTESDLGFTHNEDAKRYIRQLPNFPRQPLAKLFSHVNPMAIDLVDRMLTFDPNRRITVEQALNHQYLAKLHDPNDEPICQKPFSFEFEQQPLDEEQIKEMIYQEAIALNPTYG
binding [4]: binds | binding [5]: binds | binding [6]: binds | binding [7]: binds

B2: MPK3-GFP (enzyme, UniProt Q39023 1-370)
chain: B1 chain
binding [1]: binds | binding [2]: binds

Further lines, results first:

binding [1]: binds | binding [2]: binds
Molecule: MPK6-GFP (from UniProt Q39026 1-395) (enzyme)

binding [4]: binds | binding [5]: binds | binding [6]: binds | binding [7]: binds
Molecule: mitogen-activated protein kinase 6 (MPK6), yeast two-hybrid fusion (from UniProt Q39026 1-395) (enzyme)

binding [3]: binds
B3: MPK3-YFP^N (enzyme, UniProt Q39023 1-370)
chain: B1 chain
